Laboratory results from the supplement of paper PMC4635364.
Counter-ions that a name gives are not always drawn. This is one part of the list. Repeats in this data set agree poorly, so a single value says little.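 ReNCell VM, a human fetal ventral-midbrain neural progenitor line, was differentiated without mitogens. Blinded raters scored images stained for doublecortin (early neurons) or tyrosine hydroxylase (dopaminergic neurons) against untreated wells (0 = no change). Scores were averaged across repeats and both raters, and compounds averaging 2 or more were selected as hits for retesting.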

system: ReNCell VM; assay: neuronal differentiation score (DCX+ cell fraction vs untreated, manual image score) (score (-3 to 3)); higher = more neuronal differentiation; conditions: library: Tocriscreen; 2 uM; 2 weeks

Question: With `C[N+]1(C)CCC(OC(=O)C(c2ccccc2)c2ccccc2)CC1` as the compound, how does the neuronal differentiation score read?
Answer: The neuronal differentiation score was inactive: 0.

Question: Which neuronal differentiation score does the source give for `OC[C@H]1NC[C@@H](O)[C@@H](O)[C@@H]1O` [1-Deoxymannojirimycin hydrochloride] here?
Answer: The neuronal differentiation score was inactive: 0.

Question: For `O=Nc1ccc(O)c2ncccc12`, which neuronal differentiation score is on record?
Answer: Its neuronal differentiation score is inactive: 0.

Question: How did the neuronal differentiation score turn out when `COc1ccccc1N1CCN(CCCCNC(=O)c2ccc(-c3ccc(C(C)=O)cc3)cc2)CC1` was run?
Answer: Its neuronal differentiation score is inactive: -3.

Question: Which neuronal differentiation score does the source give for `O/N=C/c1ccc(-c2ccc(O)c(F)c2)c(Cl)c1O` here?
Answer: Its neuronal differentiation score is inactive: 0.

Question: `CCOC(=O)[C@H](CCc1ccccc1)N[C@H]1CCc2ccccc2N(CC(=O)O)C1=O` [Benazepril hydrochloride] was tested. Which neuronal differentiation score did it give?
Answer: Its neuronal differentiation score is inactive: 0.

Question: How did the neuronal differentiation score turn out when `c1cnc(N2CCN(Cc3ccc4c(c3)OCO4)CC2)nc1` [Piribedil] was run?
Answer: The neuronal differentiation score was inactive: 0.

Question: How did the neuronal differentiation score turn out when `Cc1c(C2CCN(CCc3ccccc3)CC2)noc1-c1ccc(Cl)cc1` [L-741,742 hydrochloride] was run?
Answer: Its neuronal differentiation score is inactive: 0.

Question: `COc1ccc(NC(=O)c2cc(OCCCN(C)C)nn2Cc2ccccc2)cc1` [CFM 1571 hydrochloride] was tested. Which neuronal differentiation score did it give?
Answer: The neuronal differentiation score was inactive: 0.

Question: `Fc1ccc([C@@H]2CCNC[C@H]2COc2ccc3c(c2)OCO3)cc1` [Paroxetine maleate] was tested. Which neuronal differentiation score did it give?
Answer: The neuronal differentiation score was inactive: 0.

system: ReNCell VM; assay: dopaminergic neuron differentiation score (TH+ cell fraction vs untreated, manual image score) (score (0 to 3)); higher = more TH+ dopaminergic neuron differentiation; conditions: library: LOPAC; 2 uM; 4 weeks; BDNF 10 ng/ml + GDNF 10 ng/ml

Question: With `N=C(N)c1ccc(N)cc1` [4-Aminobenzamidine dihydrochloride] as the compound, how does the “dopaminergic neuron differentiation score” value read?
Answer: Its value is inactive: 0.

Question: How did the “dopaminergic neuron differentiation score” value turn out when `NCCSSCCN` [Cystamine dihydrochloride] was run?
Answer: Its value is inactive: 0.

Question: With `NC(=S)c1ccc[n+]([C@@H]2O[C@@H](COP(=O)([O-])OP(=O)(O)OC[C@H]3O[C@@H](n4cnc5c(N)ncnc54)C(OP(=O)(O)O)[C@H]3O)C(O)C2O)c1` (some centres undefined) [Thio-NADP sodium] as the compound, how does the “dopaminergic neuron differentiation score” value read?
Answer: The value was inactive: 0.

Question: How did the “dopaminergic neuron differentiation score” value turn out when `COc1ccc2c(c1)CC[C@@H]1[C@@H]2CC[C@]2(C)[C@@H](NCCCCCCN3C(=O)CCC3=O)CC[C@@H]12` was run?
Answer: The value was inactive: 0.

Question: How did the “dopaminergic neuron differentiation score” value turn out when `CO[C@@]1(NC(=O)CSCC#N)C(=O)N2C(C(=O)O)=C(CSc3nnnn3C)CS[C@@H]21` [Cefmetazole sodium] was run?
Answer: The value was inactive: 0.

same assay, conditions: library: Phytochemical; 2 uM; 4 weeks; BDNF 10 ng/ml + GDNF 10 ng/ml

Question: Which “dopaminergic neuron differentiation score” value does the source give for `C[C@@H]1CC[C@@]2(OC1)O[C@H]1C[C@H]3[C@@H]4CC=C5C[C@@H](O)CC[C@]5(C)[C@H]4CC[C@]3(C)[C@H]1[C@@H]2C` [Diosgenin] here?
Answer: Its value is inactive: 0.

Question: With `Cn1c(-c2ccc3c(c2)OCO3)cc(=O)c2ccccc21` [Graveoline] as the compound, how does the “dopaminergic neuron differentiation score” value read?
Answer: The value was inactive: 0.

Question: Which “dopaminergic neuron differentiation score” value does the source give for `COc1cc2c(cc1OC)-c1cc3ccc(OC)c(OC)c3c[n+]1CC2` [Palmatine chloride] here?
Answer: The value was inactive: 0.

Question: How did the “dopaminergic neuron differentiation score” value turn out when `CC1O[C@H](O[C@]2(O[C@H]3CC[C@@]4(C)C(=CC[C@H]5[C@@H]6C[C@H]7[C@H]([C@H](C)[C@H]8CC[C@H](C)CN87)[C@@]6(C)CC[C@@H]54)C3)C[C@@H](O[C@@H]3OC(CO)[C@@H](O)[C@@H](O)C3O)[C@@H](O)C(CO)O2)C(O)[C@@H](O)[C@H]1O` (stereo partly drawn) [Solanine alpha] was run?
Answer: Its value is inactive: 0.
